Source: PubChem BioAssay AID2551 (National Center for Advancing Translational Sciences (NCATS), 2010)
The campaign covered roughly 310,000 compounds. About 17,000 (5.5%) were called active. The inconclusive results got no clear call from the source; some entries with a clear call stand among them for comparison. Calls come from the whole dose curve; as a rule, active = well fitted inhibition curve with a large enough effect; inconclusive = small, poorly fitted or top-dose-only effect, or effect the other way; inactive = no such curve, though single readings can be large or run the other way. Potencies beside an inconclusive call are fits to weak or partial responses and may not hold up.

Sequences of proteins named here, by UniProt entry; tags and fusion partners are left off. A change or cut given only in a name is not applied to a line headed by its entry.
UniProt P51450: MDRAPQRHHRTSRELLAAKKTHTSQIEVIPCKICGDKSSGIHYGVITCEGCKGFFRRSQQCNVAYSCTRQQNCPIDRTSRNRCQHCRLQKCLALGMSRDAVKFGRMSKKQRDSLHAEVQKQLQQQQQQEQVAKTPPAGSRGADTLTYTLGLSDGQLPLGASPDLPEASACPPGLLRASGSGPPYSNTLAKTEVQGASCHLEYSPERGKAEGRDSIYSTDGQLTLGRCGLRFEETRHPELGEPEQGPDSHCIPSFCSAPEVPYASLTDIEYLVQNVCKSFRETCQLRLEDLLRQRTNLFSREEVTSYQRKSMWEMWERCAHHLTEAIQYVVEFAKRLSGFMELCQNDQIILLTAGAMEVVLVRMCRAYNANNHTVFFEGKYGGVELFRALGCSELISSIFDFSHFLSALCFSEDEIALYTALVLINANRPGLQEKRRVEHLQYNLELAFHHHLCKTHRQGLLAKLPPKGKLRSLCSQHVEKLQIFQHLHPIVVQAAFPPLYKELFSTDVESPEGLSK

Target: Nuclear receptor ROR-gamma (Mus musculus) (UniProt P51450)
Assay: qHTS for inhibitors of ROR gamma transcriptional activity; note: nearly all actives have a fitted effect of over 60% in size
Details: Drosophila S2 Gal4-RORgamma UAS-luciferase reporter, 20 h; activity change, negative = inhibition: at 53.6 µM (top of the series)
Method in brief: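 A Gal4/UAS one-hybrid system in insect cells: metallothionein-promoter Gal4–ROR gamma fusion plus Photinus luciferase reporter. Copper sulfate 700 uM final, 20 hr ambient incubation, luminescent detection after 10 min with reagent.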
% is set by controls: 0 for no effect and ±100 for the full control effect; potency is the fitted concentration of half-maximal effect.

SMILES	Potency	activity change, negative = inhibition
CCCn1nc(C(=O)OCC(=O)Nc2ncc(Cl)c(C)c2Cl)c2ccccc2c1=O	inconclusive: 0.0631 µM [activator, full curve, poor fit]	
Cc1ccccc1C(=O)NC(C(=O)Nc1nc2c(s1)CCCC2)C(C)C (stereo unspecified)	inconclusive: 2.51 µM [activator, partial curve]	
C=CCN1CCN(C(CC(C)C)c2nnnn2CCOC)CC1 (stereo unspecified)	inactive	
Fc1cccc(/C=N/Nc2ccccn2)c1	active: 11.2 µM	
Cc1cccc(NC(=O)/C(=C\c2ccco2)NC(=O)c2ccccc2)c1	inactive	
COc1ccc(-c2nn(-c3ccccc3)cc2/C=N/NC(N)=S)cc1OC	active: 1.12 µM	
O=C1c2cccc3c([N+](=O)[O-])ccc(c23)C(=O)N1c1nccs1	active: 5.62 µM	
CC1C(=NO)C(C)C(c2ccc(N(C)C)cc2)NC1c1ccc(N(C)C)cc1 (stereo unspecified)	inconclusive: 12.6 µM [activator, partial curve, poor fit]	
Cc1cc(C)c(S(=O)(=O)Nc2ccc(N(C)C)cc2)c(C)c1-n1cnnn1	inconclusive: 1.58 µM [inhibitor, full curve]	
COc1cc(O)c(C(=O)/C=C\c2ccc3c(c2)OCO3)c(OC)c1		inactive: 2.72% [at 10 µM]
COc1ccccc1N1CCN(C[C@@H]2CN3C(=O)N(C)c4ccccc4C3=N2)CC1	inconclusive: 22.4 µM [inhibitor, partial curve]	
CC(=O)N1c2ccc(S(=O)(=O)N3CCC(C(=O)NCc4ccccc4)CC3)cc2CC1C (stereo unspecified)	inactive	
CC(C)OCCCNc1ncc2c(n1)CC(c1cccs1)CC2=O (stereo unspecified)	inconclusive: 15.8 µM [activator, single point]	
O=C(COc1ccccc1)NCC(=O)N/N=C/c1cccs1	inactive	
COC1=C(C)C(O)=C(C(=O)/C=C/c2ccccc2)C(=O)C1(C)C	inconclusive: 22.4 µM [inhibitor, single point]	
Cc1ccc(C)c(S(=O)(=O)N2CC(=O)N(CCc3ccccc3)C(=O)C2)c1	inconclusive: 14.1 µM [activator, single point]	
COc1ccc(CNc2ncncc2-c2cccc(NS(C)(=O)=O)c2)c(OC)c1	inconclusive: 0.0251 µM [activator, full curve, poor fit]	
Brc1ccc(Oc2nnnn2-c2ccccc2)cc1	inconclusive: 5.62 µM [activator, partial curve]	
COc1ccc(S(=O)(=O)N(C)CC(=O)N2CCCC2)cc1		inactive: -15.8% [at 1.91 µM]
Cc1ccc(C)c(NC(=O)C(Sc2nc3ccc(C)cc3[nH]2)c2ccccc2)c1 (stereo unspecified)	inconclusive: 15.8 µM [inhibitor, single point]	
Cc1ccccc1COc1ccc(/C(O)=C2/C(=O)C(=O)N(CCCn3ccnc3)C2c2ccco2)cc1 (stereo unspecified)	inconclusive: 35.5 µM [inhibitor, single point]	
O=C(/C=C/Nc1ccccc1C(F)(F)F)c1ccco1	inconclusive: 7.94 µM [inhibitor, partial curve]	
CCOc1ccc(N2CC(C(=O)Nc3cccc(S(=O)(=O)N4CCCCC4)c3)CC2=O)cc1 (stereo unspecified)	inconclusive: 17.8 µM [activator, single point]	
CCCCCc1cc(=O)oc2c(C(CCN(CC)CC)c3cc(OC)c(OC)c(OC)c3)c(OC)cc(OC)c12 (stereo unspecified)	inconclusive: 35.5 µM [inhibitor, single point]	

Some of the entries so far, with bars between the fields:
SMILES | Potency | activity change, negative = inhibition
COc1ccccc1N1CCN(C[C@@H]2CN3C(=O)N(C)c4ccccc4C3=N2)CC1 | inconclusive: 22.4 µM [inhibitor, partial curve] | 
COC1=C(C)C(O)=C(C(=O)/C=C/c2ccccc2)C(=O)C1(C)C | inconclusive: 22.4 µM [inhibitor, single point] | 
CCOc1ccc(N2CC(C(=O)Nc3cccc(S(=O)(=O)N4CCCCC4)c3)CC2=O)cc1 (stereo unspecified) | inconclusive: 17.8 µM [activator, single point] | 

The results go on:

SMILES	Potency	activity change, negative = inhibition
CCC(C)NC(=O)CNC(=S)N(Cc1ccccc1F)C1CCCCC1 (stereo unspecified)	inconclusive: 2.82 µM [inhibitor, partial curve, poor fit]	
COc1ccc(COC(=O)N/N=C2/C[C@@H](O)[C@@H](O)[C@@H]3[C@@H]4C(=O)N(Cc5ccccc5)C(=O)[C@H]4CC[C@@H]23)cc1		inactive: 26.1% [at 10 µM]
Cc1ccc(S(=O)(=O)N2CCOCC2)cc1C(=O)N1C(=O)c2cccc(N)c2C1=O	inconclusive: 3.16 µM [inhibitor, single point]	
Cc1ccc(NC(=S)NCc2ccc3c(c2)OCO3)c(C)c1	inconclusive: 5.01 µM [inhibitor, full curve, poor fit]	
COc1ccc(Cc2nc(-c3cccnc3)no2)cc1OC	inconclusive: 22.4 µM [activator, single point]	
O=C(O)COc1ccccc1/C=C1\SC(=S)N(c2cccnc2)C1=O	inactive	
COc1cc(OC)cc(C(=O)NC2CCN(CC(=O)Nc3cccc4ccccc34)CC2)c1	inactive	
CCc1ccc(NC(=O)C2(C)Cc3ccccc3C(=O)O2)cc1 (stereo unspecified)	inconclusive: 15.8 µM [activator, partial curve]	
Cc1ccccc1OCC(=O)Nc1ccc(Cc2ccncc2)cc1	inconclusive: 31.6 µM [inhibitor, single point]	
COCCCNC(=S)N1CCN(c2nc(-c3ccc(F)cc3)cs2)CC1	inactive	
CCS(=O)(=O)Nc1ccc(-c2cc(-c3ccccc3)c3cc(C)ccc3n2)cc1	inconclusive: 1.26 µM [activator, full curve, poor fit]	
CC(C)(C)c1ccc(/C=N/OCC(=O)NCc2ccccc2)cc1	inconclusive: 35.5 µM [activator, single point]	
Cc1cc(C)n(-c2cc(N3CCN(S(=O)(=O)c4ccc5ccccc5c4)CC3)ccc2[N+](=O)[O-])n1	inactive	
Oc1c(Br)cc(C=Nc2ccc3nc(-c4ccccc4)[nH]c3c2)c(O)c1Br	inactive	
O=C(Nc1ccc(Cl)c(S(=O)(=O)N2CCOCC2)c1)c1ccccn1	inconclusive: 35.5 µM [inhibitor, single point]	
C=C(C)C(=O)O[C@H]1C/C(C)=C\C(=O)/C=C(\C)[C@H](O)[C@@H]2OC(=O)C(=C)[C@@H]21	inconclusive: 0.0063 µM [activator, full curve, poor fit]	
Fc1cccc(Cc2noc(CN3CCSCC3)n2)c1	inactive	
CC(C)(C)c1ccc(COC(=O)Nc2ccc(F)cc2)cc1	inconclusive: 31.6 µM [activator, single point]	
COCCNC(=S)N/N=C/c1c2ccccc2cc2ccccc12	active: 7.08 µM	
COCn1c(-c2ccc(OC)cc2)nc2ccccc21	inconclusive: 0.1 µM [activator, full curve, poor fit]	
CC(C)c1ccc(NC(=O)COc2ccccn2)cc1	inactive	
CCOc1cccc(-c2c(C(=O)N/N=C(\C)c3ccccn3)nnn2-c2nonc2N)c1	inconclusive: 15.8 µM [inhibitor, single point]	
Nc1cc(=O)[nH]c(SCC(=O)N2CCCc3ccccc32)n1	inconclusive: 14.1 µM [activator, single point]	
CCc1cc(C(=O)N2CCCC(CCC(=O)N3CCN(c4ccccn4)CC3)C2)no1 (stereo unspecified)	inactive	

SMILES	Potency	activity change, negative = inhibition
c1ccc(-c2nc(CSc3n[nH]c(-c4cccs4)n3)cs2)cc1	active: 31.6 µM	
CCCN1CCN(C(=S)Nc2ccc(SC(F)F)cc2)CC1	inactive	
Cc1ccc(OCCCCc2c(C)n[nH]c2C)cc1	inconclusive: 35.5 µM [inhibitor, single point]	
COC(=O)c1cccc(NC(=O)Nc2ccc(Cl)cc2)c1	inactive	
CCOc1cc(/C=C2\COc3ccccc3C2=O)ccc1OCC(=O)N(C)C	inconclusive: 7.08 µM [inhibitor, single point]	
CC(=NCc1cccnc1)C1=C(O)c2ccccc2C1=O	inconclusive: 12.6 µM [inhibitor, single point]	
Cc1sc2ncnc(NCC(O)c3ccccc3)c2c1C (stereo unspecified)	inconclusive: 28.2 µM [inhibitor, single point]	
O=C(COc1ccccc1Cl)Nc1ccc(N2CCN(C(=O)c3ccccc3)CC2)cc1	inconclusive: 12.6 µM [activator, single point]	
CCCCC1OC23CCCCC2C(C#N)(C(=N)O3)C1(C#N)C#N (stereo unspecified)	inactive	
Cc1ccccc1C(=O)Nc1ccc(Cl)cn1	inactive	
O=C(N/N=C/c1c(O)ccc2ccccc12)c1cccc(C(F)(F)F)c1	active: 3.16 µM	
CS/C(N)=N/N=C/c1cc(C)ccc1O	active: 0.316 µM	
CCc1ccc(NC(=O)c2cc3c(C)nc4ccccc4c3o2)cc1	inactive	
O=C(NCc1ccco1)c1ccc2c(c1)C(=O)N(Cc1ccccc1)C2=O	inconclusive: 6.31 µM [activator, full curve, poor fit]	
CC1=C(Nc2ccc(C(=O)O)cc2)C(=O)c2ccccc2C1=O	inactive	
COc1ccccc1NC(=O)N1CCc2c([nH]c3ccccc23)C1C(F)(F)F (stereo unspecified)	inconclusive: 25.1 µM [activator, single point]	
NC(=O)c1ccc2c(=O)n3c(-c4cc(Cl)c(N)c(Cl)c4)csc3nc2c1	inactive	
C=CCC1(CC=C)CCCN1C(=O)c1cc(COc2ccc(C)nc2)on1	inconclusive: 2 µM [activator, partial curve]	
CSc1ccc2c(c1)[C@H](N1CCN(C)CC1)Cc1ccccc1S2	inconclusive: 31.6 µM [inhibitor, single point]	
C/C(=N\Nc1nc(-c2ccccc2)cs1)c1cccs1	inactive	
CC(C)[C@@H]1NC(=O)N(c2ccc(Oc3ccccc3)cc2)C1=O	inconclusive: 25.1 µM [activator, single point]	
CN(C)S(=O)(=O)c1cccc(NC(=O)CCSc2ccc(Cl)cc2)c1	inconclusive: 35.5 µM [activator, single point]	
O=C(c1cc2cc([N+](=O)[O-])ccc2s1)N1CCCCC1	inconclusive: 7.08 µM [activator, partial curve, poor fit]	
